# Measured data: PubChem BioAssay AID743454 (Peter MacCallum Cancer Centre, 2014)
# Purpose: 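Search for knock-downs that restore vorinostat killing in resistant colon cancer cells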 (primary screen)
# Cells: human HCT116-VR colon cancer cells, selected for vorinostat resistance
# Reagents: siRNA pool against human genes, 40 nM siRNA pool
# Duration: vorinostat for 24 h, read-out about 72 h after transfection
# Conditions: vorinostat at 2.5 µM final
# Read-out: 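Cell viability by CellTiter-Fluor and caspase 3/7 activity by luminescence, each scaled to mock wells per plate, duplicates averaged, then robust z-scored over all plates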
# Reading the numbers: viability robust z-score: higher = more viable cells than screen typical; caspase robust z-score: higher = more caspase 3/7 activity than screen typical
# Call rule: 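Hits are knock-downs in viability class RV1/RV2 or caspase class CA1/CA2, excluding ones that killed cells in the no-drug cell-count arm; hits then retested with single siRNAs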
# In all, the deposit lists about 18,000 reagents; shown is a random part of them. Over the whole deposit, 450 (2.5%) are marked active. 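Single biological run; no consistent viability z cut-off exists, so the class columns, not z-scores, define the calls.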
The opening 6 records, ahead of the listing:
gene,viability hit class,caspase hit class,viability robust z-score,caspase robust z-score,call
GABRA5 (gamma-aminobutyric acid type A receptor subunit alpha5),no change,no change,-1.1,0.04,inactive
CRELD1 (CRELD disulfide isomerase 1),no change,no change,1.54,-0.55,inactive
ATP6V0E1 (ATPase H+ transporting V0 subunit e1),no change,no change,-0.58,-1.37,inactive
PGBD1 (piggyBac transposable element derived 1),no change,no change,-0.06,-0.01,inactive
IER2 (immediate early response 2),no change,no change,0.31,-0.84,inactive
ADNP2 (ADNP homeobox 2),no change,no change,-2.81,-0.32,inactive

The listing, repeating the preview:
gene,viability hit class,caspase hit class,viability robust z-score,caspase robust z-score,call
GABRA5 (gamma-aminobutyric acid type A receptor subunit alpha5),no change,no change,-1.1,0.04,inactive
CRELD1 (CRELD disulfide isomerase 1),no change,no change,1.54,-0.55,inactive
ATP6V0E1 (ATPase H+ transporting V0 subunit e1),no change,no change,-0.58,-1.37,inactive
PGBD1 (piggyBac transposable element derived 1),no change,no change,-0.06,-0.01,inactive
IER2 (immediate early response 2),no change,no change,0.31,-0.84,inactive
ADNP2 (ADNP homeobox 2),no change,no change,-2.81,-0.32,inactive
PTF1A (pancreas associated transcription factor 1a),no change,no change,0.52,-0.47,inactive
NOX3 (NADPH oxidase 3),no change,no change,0.06,-0.52,inactive
TWSG1 (twisted gastrulation BMP signaling modulator 1),no change,no change,-0.49,-0.55,inactive
DAZ2 (deleted in azoospermia 2),no change,no change,0.54,0.38,inactive
TFF3 (trefoil factor 3),no change,no change,1.48,-0.3,inactive
ELF1 (E74 like ETS transcription factor 1),no change,no change,-0.34,-0.46,inactive
ING4 (inhibitor of growth family member 4),no change,no change,-0.68,-0.2,inactive
ZFR (zinc finger RNA binding protein),no change,no change,0.73,0.66,inactive
MTMR12 (myotubularin related protein 12),no change,no change,0.02,-0.92,inactive
UBQLN4 (ubiquilin 4),no change,no change,-0.98,4.4,inactive
KLHL34 (kelch like family member 34),no change,no change,1.06,-0.12,inactive
NR2F1 (nuclear receptor subfamily 2 group F member 1),no change,no change,1.28,-0.68,inactive
"ST8SIA4 (ST8 alpha-N-acetyl-neuraminide alpha-2,8-sialyltransferase 4)",no change,no change,-1.25,0.88,inactive
EFCAB12 (EF-hand calcium binding domain 12),no change,no change,0.21,-0.6,inactive
"AIFM2 (AIF family member 2, ferroptosis suppressor)",no change,CA2 (caspase activation),-2.77,6.22,active
KRTAP11-1 (keratin associated protein 11-1),no change,no change,0.67,-0.7,inactive
CCDC138 (coiled-coil domain containing 138),no change,no change,0.42,-0.61,inactive
MRAS (muscle RAS oncogene homolog),no change,no change,0.22,2.66,inactive
PCDH8 (protocadherin 8),no change,no change,1.25,-0.32,inactive
C3orf36 (chromosome 3 putative open reading frame 36),no change,no change,-0.84,1.48,inactive
TRIP12 (thyroid hormone receptor interactor 12),no change,no change,-0.13,0.62,inactive
POU6F2 (POU class 6 homeobox 2),no change,no change,-1.55,1.8,inactive
WFDC8 (WAP four-disulfide core domain 8),no change,no change,0.08,-0.88,inactive
NOLC1 (nucleolar and coiled-body phosphoprotein 1),no change,no change,-0.82,1.42,inactive
NPL (N-acetylneuraminate pyruvate lyase),no change,no change,0.72,0.52,inactive
VAV3 (vav guanine nucleotide exchange factor 3),no change,no change,1.27,0.11,inactive
OR5A2 (olfactory receptor family 5 subfamily A member 2),no change,no change,0.12,0.76,inactive
"NAA16 (N-alpha-acetyltransferase 16, NatA auxiliary subunit)",no change,no change,0.66,-0.26,inactive
PFN4 (profilin family member 4),no change,no change,-0.5,0.87,inactive
"MUC20 (mucin 20, cell surface associated)",no change,no change,0.54,1.44,inactive
CIDEA (cell death inducing DFFA like effector a),no change,no change,0.42,-0.48,inactive
H3-3A (H3.3 histone A),no change,no change,-0.71,-0.98,inactive
GFAP (glial fibrillary acidic protein),no change,no change,0.3,-1.25,inactive
"PCDHGB1 (protocadherin gamma subfamily B, 1)",no change,no change,1.94,-0.89,inactive
CHAD (chondroadherin),no change,no change,-0.06,-0.28,inactive
KAZALD1 (Kazal type serine peptidase inhibitor domain 1),no change,no change,-0.64,-0.39,inactive
FAM3C (FAM3 metabolism regulating signaling molecule C),no change,CA1 (caspase activation),0.13,6.65,active
KRT77 (keratin 77),no change,no change,0.61,0.87,inactive
OGFR (opioid growth factor receptor),no change,no change,-0.9,2.9,inactive
LAMC1 (laminin subunit gamma 1),no change,no change,0.88,-0.58,inactive
SLC30A8,no change,no change,-2.21,0.08,inactive
CYBRD1 (cytochrome b reductase 1),no change,no change,-1.02,-0.56,inactive
CACNA2D3,no change,no change,-0.42,1.25,inactive
GPRASP1 (G protein-coupled receptor associated sorting protein 1),no change,no change,-0.33,0.92,inactive
ITIH5 (inter-alpha-trypsin inhibitor heavy chain 5),no change,no change,1.41,-0.66,inactive
RHCG (Rh family C glycoprotein),no change,no change,0.22,0.66,inactive
SEPTIN11 (septin 11),no change,no change,-0.08,1.75,inactive
AGTR2 (angiotensin II receptor type 2),no change,no change,-1.69,3.35,inactive
BHLHE41 (basic helix-loop-helix family member e41),no change,no change,1.12,-0.59,inactive
ATF5 (activating transcription factor 5),no change,no change,-0.29,1.5,inactive
CCDC198 (coiled-coil domain containing 198),no change,no change,-0.03,1.27,inactive
